The other results are listed elsewhere or left out. For some of these results: The source does not settle which construct or isoform was used.
Columns and labels:
Test in all cases: protein microarray (ProtoArray v5.0), streptavidin-Alexa Fluor 647
Conditions in all cases: 3'-biotin; 20 mM Tris (pH 7.5), 5 mM MgCl2, 100 mM KCl, 0.1% Tween-20, A/T-rich and random oligonucleotide blockers; temperature not stated; high values mean tight binding
GABARAPL1 [1] = target: GABARAPL1 (UniProt Q9H0R8)
GABARAPL1 [2] = target: GABARAPL1 (UniProt Q9H0R8); remark: listed apart in the source
[3] = system: Aflatoxin B1 aldehyde reductase member 2 (human)
[4] = system: Ras-related C3 botulinum toxin substrate 1 (human)

Chains of the proteins cited; added tags and fusions are not shown. Lines headed by an entry give the natural chain unless they say otherwise; changes in a name come on top.
UniProt Q9H0R8: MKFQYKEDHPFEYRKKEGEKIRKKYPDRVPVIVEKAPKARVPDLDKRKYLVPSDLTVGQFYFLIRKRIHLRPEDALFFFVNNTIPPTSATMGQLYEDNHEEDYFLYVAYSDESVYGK

Sequence: GGTGACAGGGGTATGGGGAGGGG [G4-2 biotinylated (Ct1)]
- binding signal (GABARAPL1 [1]): 3.77 z-score

Sequence: GGGGACAGGGGTATGGGGAGGGG [G4-3 biotinylated (CtG)]
- binding signal (GABARAPL1 [2]): 4.68 z-score

Sequence: GGGAGGCTGAGGCAGG [G4-1 biotinylated (PQS2)]
- binding signal [3]: -0.295 z-score
- binding signal [4]: -0.273 z-score
